Reference: patent US7572938B2, “Precursors for ketones and aldehydes” (Givaudan SA, priority 2001, dated 2009)

Assay: Photorelease assays on fabric: spray tests, evaluation by a trained panel of perfumers
Design: key: 0: very weak; +: weak; ++: medium; +++: strong
Conditions: Terry towel sprayed with 0.2% solution in ethanol; for Fragrance Target (perception) Aldehyde/Ketone (III) nat. light / Global appreciation nat. light / Fragrance Target (perception) Aryl ketone (II) nat. light: natural winter sun light behind glass window; for Fragrance Target (perception) Aldehyde/Ketone (III) art. light / Global appreciation art. light / Fragrance Target (perception) Aryl ketone (II) art. light: tanning lamp 300 W, 50 cm

| SMILES | Fragrance Target (perception) Aldehyde/Ketone (III) nat. light | Global appreciation nat. light | Fragrance Target (perception) Aldehyde/Ketone (III) art. light | Global appreciation art. light | Fragrance Target (perception) Aryl ketone (II) nat. light | Fragrance Target (perception) Aryl ketone (II) art. light |
| --- | --- | --- | --- | --- | --- | --- |
| CCCOc1ccc(C(=O)C(OCC(C)CCCC(C)CCC=C(C)C)OCC(C)CCCC(C)CCC=C(C)C)cc1 (stereo not drawn) [compound 12] | + | + | ++ | ++ |  |  |
| CCCOc1ccc(C(=O)C(OC2C[C@@H](C)CC[C@@H]2C(C)C)OC2C[C@@H](C)CC[C@@H]2C(C)C)cc1 (stereo partly drawn) [compound 13, 2,2-Bis-(2-isopropyl-5-methyl-cyclohexyloxy)-1-(4-propoxy-phenyl)-ethanone] | + | + | ++ | ++ |  |  |
| CCCOc1ccc(C(=O)C(OC(C)CCC2=C(C)CCCC2(C)C)OC(C)CCC2=C(C)CCCC2(C)C)cc1 (stereo not drawn) [compound 14, 2,2-Bis-[1-methyl-3-(2,6,6-trimethyl-cyclohex-1-enyl)-propoxy]-1-(4-propoxy-phenyl)-ethanone] | 0 | 0 | ++ | ++ |  |  |
| COCCOc1ccc(C(=O)C(OCC(C)Cc2ccc(C(C)(C)C)cc2)OCC(C)Cc2ccc(C(C)(C)C)cc2)cc1 (stereo not drawn) [compound 15] | ++ | ++ | +++ | +++ |  |  |
| CCCCCCCCCC(C)COC(OCC(C)CCCCCCCCC)C(=O)c1ccc(OCCOC)cc1 (stereo not drawn) [compound 16] | +++ | +++ | +++ | +++ |  |  |
| COCCOc1ccc(C(=O)C(OCC2CCC(C)=CC2C)OCC2CCC(C)=CC2C)cc1 (stereo not drawn) [compound 17] | + | + | +++ | +++ |  |  |
| COCCOc1ccc(C(=O)C(OCC(C)CCCC(C)CCC=C(C)C)OCC(C)CCCC(C)CCC=C(C)C)cc1 (stereo not drawn) [compound 18] | + | + | ++ | ++ |  |  |
| CCCCCCCCCCOc1ccc(C(=O)C(OCCC(C)CCC=C(C)C)OCCC(C)CCC=C(C)C)cc1 (stereo not drawn) [compound 19] | ++ | ++ | +++ | +++ |  |  |
| C=CCCCCCCCCCOC(OCCCCCCCCCC=C)C(=O)c1ccc(OCCCCCCCCCC)cc1 [compound 20] | ++ | ++ | +++ | +++ |  |  |
| CCCCCCCCCCCCCCCCCCOc1ccc(C(=O)C(OCC(C)Cc2ccc(C(C)(C)C)cc2)OCC(C)Cc2ccc(C(C)(C)C)cc2)cc1 (stereo not drawn) [compound 21] | ++ | ++ | +++ | +++ |  |  |
| CCCCCCCCCCCCCCCCCCOc1ccc(C(=O)C(OCCC(C)CCC=C(C)C)OCCC(C)CCC=C(C)C)cc1 (stereo not drawn) [compound 22] | ++ | ++ | +++ | +++ |  |  |
| CCCCCCCCCCCCCCCCCCOc1ccc(C(=O)C(OCCC(C)c2cccc(C(C)C)c2)OCCC(C)c2cccc(C(C)C)c2)cc1 (stereo not drawn) [compound 23] | 0 | 0 | + | + |  |  |
| C=CCCCCCCCCCOC(OCCCCCCCCCC=C)C(=O)c1ccc(OCCCCCCCCCCCCCCCCCC)cc1 [compound 24] | ++ | ++ | +++ | +++ |  |  |
| CC(COC(OCC(C)Cc1ccc(C(C)(C)C)cc1)C(=O)c1ccccc1)Cc1ccc(C(C)(C)C)cc1 (stereo not drawn) [compound 25] | + | + | ++ | ++ | + | ++ |
| CC(C)=CCCC(C)CCOC(OCCC(C)CCC=C(C)C)C(=O)c1ccccc1 (stereo not drawn) [compound 26] | + | + | ++ | ++ | + | ++ |
| C=CCCCCCCCCCOC(OCCCCCCCCCC=C)C(=O)c1ccccc1 [compound 27] | + | + | ++ | ++ | + | ++ |

| SMILES | Fragrance Target (perception) Aldehyde/Ketone (III) nat. light | Global appreciation nat. light | Fragrance Target (perception) Aldehyde/Ketone (III) art. light | Global appreciation art. light | Fragrance Target (perception) Aryl ketone (II) nat. light | Fragrance Target (perception) Aryl ketone (II) art. light |
| --- | --- | --- | --- | --- | --- | --- |
| CCCCCCOC(OCCCCCC)(C(=O)c1ccccc1)c1ccccc1 [compound 28] | + | + | ++ | ++ |  |  |
| CCCCCCCCCC(C)COC(OCC(C)CCCCCCCCC)(C(=O)c1ccccc1)c1ccccc1 (stereo not drawn) [compound 29] | ++ | +++ | +++ | +++ |  |  |
| CC(COC(OCC(C)Cc1ccc(C(C)(C)C)cc1)(C(=O)c1ccccc1)c1ccccc1)Cc1ccc(C(C)(C)C)cc1 (stereo not drawn) [compound 30] | + | + | ++ | ++ |  |  |
| CSc1ccc(C(=O)C(OCC(C)Cc2ccc(C(C)(C)C)cc2)OCC(C)Cc2ccc(C(C)(C)C)cc2)cc1 (stereo not drawn) [compound 31] | + | + | ++ | ++ |  |  |
| CCCCCCCCCC(C)COC(OCC(C)CCCCCCCCC)C(=O)c1ccc(SC)cc1 (stereo not drawn) [compound 32] | + | + | +++ | +++ |  |  |
| CC(COC(OCC(C)Cc1ccc(C(C)(C)C)cc1)C(=O)c1ccc2c(c1)OCO2)Cc1ccc(C(C)(C)C)cc1 (stereo not drawn) [compound 33] | ++ | ++ | +++ | +++ |  |  |
| CCCCCCCCCC(C)COC(OCC(C)CCCCCCCCC)C(=O)c1ccc2c(c1)OCO2 (stereo not drawn) [compound 34] | +++ | +++ | +++ | +++ |  |  |
| O=C(c1ccc2c(c1)OCO2)C(OCCc1ccccc1)OCCc1ccccc1 [compound 35] | ++ | + | ++ | ++ |  |  |
| CC1=CC(C)C(COC(OCC2CCC(C)=CC2C)C(=O)c2ccc3c(c2)OCO3)CC1 (stereo not drawn) [compound 36] | + | + | ++ | ++ |  |  |
| COc1ccc(C(=O)C(OCC(C)Cc2ccc(C(C)(C)C)cc2)OCC(C)Cc2ccc(C(C)(C)C)cc2)cc1OC (stereo not drawn) [compound 37] | ++ | ++ | +++ | +++ |  |  |
| CCCCCCCCCC(C)COC(OCC(C)CCCCCCCCC)C(=O)c1ccc(OC)c(OC)c1 (stereo not drawn) [compound 38] | ++ | ++ | +++ | +++ |  |  |
| COc1ccc(C(=O)C(OCCc2ccccc2)OCCc2ccccc2)cc1OC [compound 39] | + | + | ++ | ++ |  |  |
| CCN(CC)c1ccc(C(=O)C(OCC(C)Cc2ccc(C(C)(C)C)cc2)OCC(C)Cc2ccc(C(C)(C)C)cc2)cc1 (stereo not drawn) [compound 41] | 0 | 0 | + | + |  |  |
| CC(COC(OCC(C)Cc1ccc(C(C)(C)C)cc1)C(=O)c1ccc(NC(=O)C(C)(C)C)cc1)Cc1ccc(C(C)(C)C)cc1 (stereo not drawn) [compound 42] |  |  | +++ | +++ |  |  |
| CCCCCCCCCC(C)COC(OCC(C)CCCCCCCCC)C(=O)c1ccc(NC(=O)C(C)(C)C)cc1 (stereo not drawn) [compound 43] |  |  | +++ | +++ |  |  |
